Laboratory results: patent US20060257938A1, “Method of screening for drugs that block ligand binding to a lipid binding protein” (priority 2005, published 2006)

Test: Baseline fluorescence ratio Ro of probe in absence of analyte
Details: baseline fluorescence ratio of probe, no fatty acid

Row | Molecule | AvgOfRo | Ro
1 | 34N, 72A (protein, listed as Rattus norvegicus, PEPTIDE (1)...(131) wild-type rat intestinal fatty acid binding protein) AFDGTWKVDRNENYEKFMEKMGINVVKRKLGAHNNLKLTITQEGNKFTVKESSNFRNIDVVFELGVDFAYSAADGTELTGTWTMEGNKLVGKFKRVDNGKELIAVREISGNELIQTYTYEGVEAKRIFKKE | 0.16 | 
2 | 36K, 72A (protein, listed as Rattus norvegicus, PEPTIDE (1)...(131) wild-type rat intestinal fatty acid binding protein) AFDGTWKVDRNENYEKFMEKMGINVVKRKLGAHDNKKLTITQEGNKFTVKESSNFRNIDVVFELGVDFAYSAADGTELTGTWTMEGNKLVGKFKRVDNGKELIAVREISGNELIQTYTYEGVEAKRIFKKE | 0.43 | 
3 | 36E2, 72A (protein, listed as Rattus norvegicus, PEPTIDE (1)...(131) wild-type rat intestinal fatty acid binding protein) AFDGTWKVDRNENYEKFMEKMGINVVKRKLGAHDNEKLTITQEGNKFTVKESSNFRNIDVVFELGVDFAYSAADGTELTGTWTMEGNKLVGKFKRVDNGKELIAVREISGNELIQTYTYEGVEAKRIFKKE | 0.31 | 
4 | 34V, 72A (protein, listed as Rattus norvegicus, PEPTIDE (1)...(131) wild-type rat intestinal fatty acid binding protein) AFDGTWKVDRNENYEKFMEKMGINVVKRKLGAHVNLKLTITQEGNKFTVKESSNFRNIDVVFELGVDFAYSAADGTELTGTWTMEGNKLVGKFKRVDNGKELIAVREISGNELIQTYTYEGVEAKRIFKKE | 0.17 | 
5 | 36C3, 72A (protein, listed as Rattus norvegicus, PEPTIDE (1)...(131) wild-type rat intestinal fatty acid binding protein) AFDGTWKVDRNENYEKFMEKMGINVVKRKLGAHDNCKLTITQEGNKFTVKESSNFRNIDVVFELGVDFAYSAADGTELTGTWTMEGNKLVGKFKRVDNGKELIAVREISGNELIQTYTYEGVEAKRIFKKE | 0.38 | 
6 | 102N, 72A (protein, listed as Rattus norvegicus, PEPTIDE (1)...(131) wild-type rat intestinal fatty acid binding protein) AFDGTWKVDRNENYEKFMEKMGINVVKRKLGAHDNLKLTITQEGNKFTVKESSNFRNIDVVFELGVDFAYSAADGTELTGTWTMEGNKLVGKFKRVDNGKENIAVREISGNELIQTYTYEGVEAKRIFKKE | 0.32 | 
7 | 36H1, 72A (protein, listed as Rattus norvegicus, PEPTIDE (1)...(131) wild-type rat intestinal fatty acid binding protein) AFDGTWKVDRNENYEKFMEKMGINVVKRKLGAHDNHKLTITQEGNKFTVKESSNFRNIDVVFELGVDFAYSAADGTELTGTWTMEGNKLVGKFKRVDNGKELIAVREISGNELIQTYTYEGVEAKRIFKKE | 0.34 | 
8 | 36F1, 72A (protein, listed as Rattus norvegicus, PEPTIDE (1)...(131) wild-type rat intestinal fatty acid binding protein) AFDGTWKVDRNENYEKFMEKMGINVVKRKLGAHDNFKLTITQEGNKFTVKESSNFRNIDVVFELGVDFAYSAADGTELTGTWTMEGNKLVGKFKRVDNGKELIAVREISGNELIQTYTYEGVEAKRIFKKE | 0.25 | 
9 | 34T, 72A (protein, listed as Rattus norvegicus, PEPTIDE (1)...(131) wild-type rat intestinal fatty acid binding protein) AFDGTWKVDRNENYEKFMEKMGINVVKRKLGAHTNLKLTITQEGNKFTVKESSNFRNIDVVFELGVDFAYSAADGTELTGTWTMEGNKLVGKFKRVDNGKELIAVREISGNELIQTYTYEGVEAKRIFKKE | 0.34 | 
10 | 36A, 72A (protein, listed as Rattus norvegicus, PEPTIDE (1)...(131) wild-type rat intestinal fatty acid binding protein) AFDGTWKVDRNENYEKFMEKMGINVVKRKLGAHDNAKLTITQEGNKFTVKESSNFRNIDVVFELGVDFAYSAADGTELTGTWTMEGNKLVGKFKRVDNGKELIAVREISGNELIQTYTYEGVEAKRIFKKE | 0.27 | 
11 | 36G2, 72A (protein, listed as Rattus norvegicus, PEPTIDE (1)...(131) wild-type rat intestinal fatty acid binding protein) AFDGTWKVDRNENYEKFMEKMGINVVKRKLGAHDNGKLTITQEGNKFTVKESSNFRNIDVVFELGVDFAYSAADGTELTGTWTMEGNKLVGKFKRVDNGKELIAVREISGNELIQTYTYEGVEAKRIFKKE | 0.36 | 
12 | 36D1, 72A (protein, listed as Rattus norvegicus, PEPTIDE (1)...(131) wild-type rat intestinal fatty acid binding protein) AFDGTWKVDRNENYEKFMEKMGINVVKRKLGAHDNDKLTITQEGNKFTVKESSNFRNIDVVFELGVDFAYSAADGTELTGTWTMEGNKLVGKFKRVDNGKELIAVREISGNELIQTYTYEGVEAKRIFKKE | 0.42 | 
13 | 36I1, 72A (protein, listed as Rattus norvegicus, PEPTIDE (1)...(131) wild-type rat intestinal fatty acid binding protein) AFDGTWKVDRNENYEKFMEKMGINVVKRKLGAHDNIKLTITQEGNKFTVKESSNFRNIDVVFELGVDFAYSAADGTELTGTWTMEGNKLVGKFKRVDNGKELIAVREISGNELIQTYTYEGVEAKRIFKKE | 0.29 | 
14 | 34P, 72A (protein, listed as Rattus norvegicus, PEPTIDE (1)...(131) wild-type rat intestinal fatty acid binding protein) AFDGTWKVDRNENYEKFMEKMGINVVKRKLGAHPNLKLTITQEGNKFTVKESSNFRNIDVVFELGVDFAYSAADGTELTGTWTMEGNKLVGKFKRVDNGKELIAVREISGNELIQTYTYEGVEAKRIFKKE | 0.42 | 
15 | 36N, 72A (protein, listed as Rattus norvegicus, PEPTIDE (1)...(131) wild-type rat intestinal fatty acid binding protein) AFDGTWKVDRNENYEKFMEKMGINVVKRKLGAHDNNKLTITQEGNKFTVKESSNFRNIDVVFELGVDFAYSAADGTELTGTWTMEGNKLVGKFKRVDNGKELIAVREISGNELIQTYTYEGVEAKRIFKKE | 0.35 | 
16 | 36M, 72A (protein, listed as Rattus norvegicus, PEPTIDE (1)...(131) wild-type rat intestinal fatty acid binding protein) AFDGTWKVDRNENYEKFMEKMGINVVKRKLGAHDNMKLTITQEGNKFTVKESSNFRNIDVVFELGVDFAYSAADGTELTGTWTMEGNKLVGKFKRVDNGKELIAVREISGNELIQTYTYEGVEAKRIFKKE | 0.20 | 
17 | 34S, 72A (protein, listed as Rattus norvegicus, PEPTIDE (1)...(131) wild-type rat intestinal fatty acid binding protein) AFDGTWKVDRNENYEKFMEKMGINVVKRKLGAHSNLKLTITQEGNKFTVKESSNFRNIDVVFELGVDFAYSAADGTELTGTWTMEGNKLVGKFKRVDNGKELIAVREISGNELIQTYTYEGVEAKRIFKKE | 0.36 | 
18 | 36L, 72A wt (protein, listed as Rattus norvegicus, PEPTIDE (1)...(131) wild-type rat intestinal fatty acid binding protein) AFDGTWKVDRNENYEKFMEKMGINVVKRKLGAHDNLKLTITQEGNKFTVKESSNFRNIDVVFELGVDFAYSAADGTELTGTWTMEGNKLVGKFKRVDNGKELIAVREISGNELIQTYTYEGVEAKRIFKKE | 0.16 | 
19 | 34R, 72A (protein, listed as Rattus norvegicus, PEPTIDE (1)...(131) wild-type rat intestinal fatty acid binding protein) AFDGTWKVDRNENYEKFMEKMGINVVKRKLGAHRNLKLTITQEGNKFTVKESSNFRNIDVVFELGVDFAYSAADGTELTGTWTMEGNKLVGKFKRVDNGKELIAVREISGNELIQTYTYEGVEAKRIFKKE | 0.52 | 
20 | 34W, 72A (protein, listed as Rattus norvegicus, PEPTIDE (1)...(131) wild-type rat intestinal fatty acid binding protein) AFDGTWKVDRNENYEKFMEKMGINVVKRKLGAHWNLKLTITQEGNKFTVKESSNFRNIDVVFELGVDFAYSAADGTELTGTWTMEGNKLVGKFKRVDNGKELIAVREISGNELIQTYTYEGVEAKRIFKKE | 0.24 | 0.187
21 | 34Y, 72A (protein, listed as Rattus norvegicus, PEPTIDE (1)...(131) wild-type rat intestinal fatty acid binding protein) AFDGTWKVDRNENYEKFMEKMGINVVKRKLGAHYNLKLTITQEGNKFTVKESSNFRNIDVVFELGVDFAYSAADGTELTGTWTMEGNKLVGKFKRVDNGKELIAVREISGNELIQTYTYEGVEAKRIFKKE | 0.18 | 
22 | 36P, 72A (protein, listed as Rattus norvegicus, PEPTIDE (1)...(131) wild-type rat intestinal fatty acid binding protein) AFDGTWKVDRNENYEKFMEKMGINVVKRKLGAHDNPKLTITQEGNKFTVKESSNFRNIDVVFELGVDFAYSAADGTELTGTWTMEGNKLVGKFKRVDNGKELIAVREISGNELIQTYTYEGVEAKRIFKKE | 0.44 | 
23 | 34Q, 72A (protein, listed as Rattus norvegicus, PEPTIDE (1)...(131) wild-type rat intestinal fatty acid binding protein) AFDGTWKVDRNENYEKFMEKMGINVVKRKLGAHQNLKLTITQEGNKFTVKESSNFRNIDVVFELGVDFAYSAADGTELTGTWTMEGNKLVGKFKRVDNGKELIAVREISGNELIQTYTYEGVEAKRIFKKE | 0.37 | 
